The numbers were not newly measured in patent US20040241049A1, “Elastomeric tools for the fabrication of elastomeric devices and uses thereof” (priority 2003, published 2004), which cites them from elsewhere.

The test system of this data set is α1-acid glycoprotein, αAGP. The following applies: displacement of quinaldine red from αAGP; stated as known.

Take `CCN(CC)CC(=O)Nc1c(C)cccc1C` [lidocaine]: the “inhibition of QR/αAGP binding (binder / non-binder)” value is on record as “known inhibitors to QR/αAGP binding”.
